These are yes or no findings as the source states them, for the method shown. Some binding calls cover weakened binding; strength is not graded here.
B1: VHH α7B7 (VHH)
VHH: EVQLQASGGGLVQAGGSLRLSCAASGGTFSSYAIGWFRQTPGKEREFVAAISWSGVSTDYAGSVKGRFTISRDNAKNTVYLQMNSLKPEDTAVYYCAAARFGTSSPDDEYHYWGHGTQVTVSS
B2: VHH α7C3 (VHH)
VHH: DVQLVESGGGLVQTGGSLRVSCAPSGRTVGTYTMGWFRQAPGENRDFVASISGAVGTTYYADSVQGRFTISRDNAKNTVYLQMNSLKPEDTAVYYCAAGSFPLTRTNYVQFWGQGTQVTVSS
B3: VHH α7E6 (VHH)
VHH: QLQLVESGGGLVQPGGSLRLSCAASGFTLDYYTIGWFRQAPGKEREGVSCIRGSGGSTNYADSVKGRFTISRDNAKNTVYLQMNSLKPEDTAVYYCAADFLSTCSLAGYRYEEVWGQGTLVTVSS
B4: VHH α7F1 (VHH)
VHH: EVQLVESGGGLVQAGGSLRLSCAAPGITLSRYGMYGMGWFRQAPGKEREFVAAITWSGGQTYYQDSVKGRFTISRDNAKKLTFLQMNSLKPEDTAVYYCAADGDRFYPEPVVDDNAYKFWGQGTQVTVSS
B5: VHH α7F5 (VHH)
VHH: DVQLVESGGGLVQAGGSLRLSCAASGRTFSSYSMGWFRQAPGKEREFVAAINWSGGTTYYADSVKGRFTISRDNAKNTVYLQMNSLKPEDTAVYYCAAGGTTAQGMSVMTPRLGSWGQGTQVTVSS

Target: hα7/m5-HT3A chimera (human; mouse) (UniProt P23979)
Test: phage cell-ELISA on Vero cells with hα7/m5-HT3A; clones with absorbance ratio (positive/control) above 3 were kept

| Binder | binding |
| --- | --- |
| B1 | binds |
| B2 | binds |
| B3 | binds |
| B4 | binds |
| B5 | binds |

Reference: patent US20260176364A1
